Laboratory results: article PMC4847170, “Insights into the DNA-binding mechanism of a LytTR-type transcription regulator”
Residue numbers refer to the chain shown, from its start. In names and notes the source's numbering stands. These are yes or no findings as the source states them, for the method shown. Tags and fused reporters may be left off the sequences shown.

Experiments:
[1] = target: 6His-YpdB (Escherichia coli) (UniProt P0AE39); assay: SEC; calibrated Superdex 200 Increase GL HR10/300 column; 50 mM Tris/HCl pH 7.6, 10% (v/v) glycerol, 150 mM NaCl, 2 mM DTT; oligomeric state of the purified protein; both purified
[2] = target: 6His-YpdB-D53E (Escherichia coli) (UniProt P0AE39); assay: as above

B1: 6His-YpdB (protein, UniProt P0AE39 1-244)
chain: MKVIIVEDEFLAQQELSWLIKEHSQMEIVGTFDDGLDVLKFLQHNRVDAIFLDINIPSLDGVLLAQNISQFAHKPFIVFITAWKEHAVEAFELEAFDYILKPYQESRITGMLQKLEAAWQQQQTSSTPAATVTRENDTINLVKDERIIVTPINDIYYAEAHEKMTFVYTRRESYVMPMNITEFCSKLPPSHFFRCHRSFCVNLNKIREIEPWFNNTYILRLKDLDFEVPVSRSKVKEFRQLMHL
Q: With B1 as the binder, how does the binding [1] read?
A: no binding

B2: 6His-YpdB-D53E (protein, UniProt P0AE39 1-244)
chain: B1 chain with D53E
Q: B2 was tested. Which binding [2] did it give?
A: no binding
